# Screening data, single-dose tests

Results are given as percent effect.
How 0% and 100% were set is not recorded. Most values in the screen are low, and negative values occur.
The compounds are a random part of those screened.
Two or more numbers in one place are separate tests of the same structure; such repeats can differ widely.

A: 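Growth of Mycobacterium tuberculosis over 4 days (cholesterol / DPPC medium with tyloxapol); the read-out is not stated. Tested at 50 µM. Direction is inferred from retests: higher values go with more growth inhibition. About 69,000 compounds were tested under these conditions; 0.54% (about 370) showed 50% or more at least once.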
B: 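Whole-cell growth test on Mycobacterium tuberculosis, read after 3 days in glucose-containing 7H9 medium; the read-out is not stated. Compounds at 50 µM. The record gives no direction; compounds that gave an IC50 in retests scored well above the rest, so higher reads as more growth inhibition. About 69,000 compounds were tested under these conditions; 1.1% (about 760) showed 50% or more at least once.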

| structure | A | B |
|---|---|---|
| `CCCN(C(=O)CCS(=O)(=O)Cc1ccccc1)c1cccc(C)c1` | 11.01% | 25.86% |
| `CC(NC(=O)c1cn(CCC2CCCCC2)nn1)c1cnn(C)c1` (stereo not shown) | -23.15% | -4.529% & -25.24% |
| `Cc1nn(C)c(C)c1-c1ccc(=O)n(C(C)C(=O)NC(C)(C)C)n1` (stereo not shown) | -2.489% & -19.39% | -19.8% |
| `Cc1ccc(C(=O)NS(=O)(=O)c2ccccc2C)c(=O)[nH]1` | -10.55% | 8.812% |
| `CC(Cn1cncn1)NC1CCN(Cc2cccc(O)c2)CC1` (stereo not shown) | 9.273% & 0.7699% | -9.553% |
| `Cc1nc2cc(C3CCCCN3C(=O)C3CC3)nn2c(O)c1C` (stereo not shown) | 24.3% | 16.54% |
| `[H][C@@]12CS(=O)(=O)C[C@]1([H])N(C(=O)c1cccc(C)n1)CCN2S(C)(=O)=O` | 14.04% | 12.79% |
| `Cc1nc(O)cc(C2CCCN(Cc3c(Cl)cncc3Cl)C2)n1` (stereo not shown) | -10.44% | -15.89% |
| `COc1ccnc(N2CCN(C(=O)c3csc(C4CC4)n3)CC2)n1` | 6.594% | 28.28% |
| `C[C@@H]1CN(CCC(=O)NCc2ccccc2Cl)C[C@@]1(O)C1CC1` | -12.44% | 6.123% |
| `[H][C@@]12CN(C(C)=O)C[C@]1(C(=O)N(C)C)CCC21CCN(S(C)(=O)=O)CC1` | 10.94% | -6.169% & 14.65% |
| `I.c1ccc(OCCNC2=NCCCN2)cc1` | -31.08% | 14.06% |
| `CCCc1nc(CNCC2CCCN2c2cccnn2)cs1` (stereo not shown) | -19.39% | 18.12% |
| `CNc1nc(N2CCC3(CCCNC3=O)C2)nc2c1CCC2` (stereo not shown) | 16.12% | 5.015% |
| `O=C(O)C(F)(F)F.O=C1CCCN1Cc1ncn2c1CN(Cc1cccs1)CCC2` | 17.49% | -29.47% |
| `CC(C)CN1C(=O)c2ccc(C(=O)NCCc3c[nH]cn3)cc2C1=O` | -8.347% | -5.843% |
| `CCCc1cc(C(=O)N[C@@H](CO)[C@@H](O)c2ccccc2)n(C)n1` | -2.066% | -5.948% & -10.83% |
| `COC(=O)c1cc2n(n1)CCN(C(=O)c1csc(CN(C)C)n1)C2` | 6.547% | 12.56% |
| `Cc1ccc(N2CCc3sc(C(=O)NCCN4CCCC4)cc32)nn1` | 12.98% | 27.14% |
| `CCOC(=O)NC(CNC(=O)c1cccnc1SC)CC(C)C` (stereo not shown) | -0.5721% | -14.07% & 0.1416% |
| `CC1COCCN1Cc1nc(Cc2ccccc2)no1` (stereo not shown) | 7.619% | 26.29% |
| `CCCc1nn(Cc2csc(CC)n2)c(=O)o1` | 39.87% | 49.13% |
| `Cc1nc(N2CCN(C)CC2)ncc1C(=O)N1CCN(C)CC1` | -0.2156% | 26.86% |
| `Cn1cc(CN2CC[C@H](O)[C@@H]2Cc2ccncc2)cn1` | -13.27% | -2.875% |
| `COCCN1CCC(CNc2nc3ccccc3o2)CC1` | -0.7681% | 9.27% |
| `O=C(O)C(F)(F)F.[H][C@@]12CCN(c3cnccn3)C[C@]1([H])CN(C(=O)CCC)C2` | -28.59% & -11.01% | -34.74% |
| `O=C(CCN1CCCCO1)N1CCC(CO)(Cc2ccccc2)CC1` | 18.17% | 9.953% & 0.9908% |
| `CCN(CC1CCOC1)C(=O)NCc1nnc2n1CCCCC2` (stereo not shown) | -16.43% & -16.13% | -1.731% |
| `c1ccc(CN2CCC(NCCSc3cnn[nH]3)CC2)cc1` | -9.922% | 18.85% |
| `Cc1ccc(S(=O)(=O)NC(=O)C2(c3ccccc3)CCC2)c(C)c1` | -28.13% | -14.82% |
| `CNC(=O)CC1CCN(C(=O)Nc2ccc(-c3cc[nH]n3)cc2)CC1` | -9.606% | 3.02% |
| `Cc1cccc(N2CCN(S(=O)(=O)CCN)CC2)c1` | -57.29% | -34.43% |
| `Cn1cnc2c1C(C(=O)N1CCCO1)N(C(=O)c1ccccc1)CC2` (stereo not shown) | 14.34% | 13.07% & 0.5936% |
| `Cc1cc(C)c2ncn(CCC(C)O)c(=O)c2c1` (stereo not shown) | -3.018% | -7.872% |
| `CC(O)CN(C)S(=O)(=O)c1ccc(C#N)cc1F` (stereo not shown) | -1.359% | 5.714% & -6.205% |
| `CCN1C(=O)CCCC12CCCN(C(=O)c1cnccn1)C2` (stereo not shown) | 4.045% | -13.54% |
| `O=C(O)C(F)(F)F.O=C(O)C(F)(F)F.[H][C@@]12CN(CC3CCOCC3)C[C@@]1([H])N(Cc1ccncc1)C(=O)CO2` | 8.893% | -1.529% |
| `CCC1CN(C(=O)c2ccc(=O)[nH]n2)CCC(=O)N1Cc1ccccc1` (stereo not shown) | -17.05% & -27.04% | -8.003% |
| `COc1ccccc1OCCNCc1c(C)nn(C)c1N(C)C.Cl` | 7.105% | -0.5574% |
| `Cn1ccnc1-c1noc(NCc2ccc3c(c2)OCCO3)n1` | 14.5% | -0.994% |
| `[H][C@@]12C[C@H](C(=O)NCc3ccco3)CN(S(=O)(=O)C3CC3)[C@]1([H])CCO2` | 6.435% | 3.579% |
| `COc1cccc(CCNS(=O)(=O)c2ccc(NC(C)=O)cc2)c1` | -2.633% | 6.183% & 20.54% |
| `Cc1nc(CN2CCC(c3nc4cc(Cl)ccc4o3)CC2)oc1C` | 5.082% | -1.683% & 4.703% |
| `CCc1nnc(SC2CCN(c3ccccc3F)C2=O)n1C` (stereo not shown) | 13.88% | 23.58% |
| `CCOCC(=O)N1CSCC1C(=O)N(C)Cc1ccco1` (stereo not shown) | -23.32% | -16.06% |
| `CCCOC1CCCN(C(=O)c2ccnnc2)C1` (stereo not shown) | -28.1% | 3.924% & -17.3% |
| `CCc1nc(C2CCCN2CC(=O)NCCOc2ccccc2)no1` (stereo not shown) | -18.51% | -10.44% |
| `CC(c1ccccn1)N(C)C(=O)CN1CCN(c2ccccn2)CC1` (stereo not shown) | 0.1018% | 17.8% & -2.507% |
| `CCCn1cnc(NC(=O)NCC2CCS(=O)(=O)C2)n1` (stereo not shown) | -22.92% | -27.76% & -4.009% |
| `CC(C)c1nc(CCNC(=O)NCc2ccnc(N(C)C)c2)cs1` | 0.6037% | 16.14% |
| `O=C(c1ccccn1)N1CCC2(COc3ncccc3S(=O)(=O)N2)C1` (stereo not shown) | 7.409% | 16.93% |
| `Cc1ccc(C2CSCCN2C(=O)c2ccnc(N(C)C)c2)o1` (stereo not shown) | 14.53% | -45.53% & -4.22% |
| `O=C1CC(N2CCN(c3ccc(F)cc3)CC2)C(=O)N1Cc1cccs1` (stereo not shown) | 14.73% | 23.3% & 5.129% |
| `CS(=O)(=O)NCc1noc2c1CN(C(=O)C1CCC1)CC2` | -29.55% | -11.72% |
| `CCn1cc(S(=O)(=O)N2CCCSc3ccccc32)cn1` | 17.84% | 27.97% |
| `[H][C@@]12C[C@@H](OCC3CC3)CN1CCN(C(=O)c1cnccn1)C2` | -22.62% | -14.55% & -3.253% |
| `CC(=O)N(C)CC(=O)NCC1(c2cccc(C)c2)CCCC1` | -9.402% | -0.8392% |
| `O=C(O)C(F)(F)F.O=C(O)C(F)(F)F.[H][C@@]12CN(CCOC)CCO[C@]1([H])CN(Cc1ccc(C)o1)C2` | 9.547% | -3.811% & -4.952% |
| `CN(C)C(=O)CCc1cncc(C2CCCN2Cc2ccccn2)n1` (stereo not shown) | -8.938% | 24.86% |
| `CC1c2cccn2CCN1C(=O)CCc1nc(-c2ccccc2)no1` (stereo not shown) | -1.976% | -8.247% & -4.303% |
| `Cn1cc(S(=O)(=O)N2CCN(S(=O)(=O)c3ccc(Br)s3)CC2)cn1` | 9.108% | 25.78% |
| `CC(C)(C)CC(=O)N1CCc2sccc2C1` | -4.452% | -7.177% & -0.8459% |
| `CCn1nc(C)c(C(=O)N2C[C@@H](CN(C)CCOC)[C@@H](CO)C2)c1C` | 11.18% | -3.626% |
| `CN(C)CCN(C)C1CCCN(C(=O)c2ccc(Cn3ccnc3)o2)C1` (stereo not shown) | 11.08% | 6.7% & 26.36% |
| `NC(=O)c1cnn2c(C3CCCN(C4CCOCC4)C3)ccnc12` (stereo not shown) | 5.984% & 16.18% | -10.1% |
| `Cc1cccc(CNC[C@H]2COCc3nc4cccnc4n32)n1` | 10.64% | -6.148% & 6.776% |

Some entries from above, unchanged:

| structure | A | B |
|---|---|---|
| `CCOCC(=O)N1CSCC1C(=O)N(C)Cc1ccco1` (stereo not shown) | -23.32% | -16.06% |
| `c1ccc(CN2CCC(NCCSc3cnn[nH]3)CC2)cc1` | -9.922% | 18.85% |
| `O=C(c1ccccn1)N1CCC2(COc3ncccc3S(=O)(=O)N2)C1` (stereo not shown) | 7.409% | 16.93% |
| `Cn1cnc2c1C(C(=O)N1CCCO1)N(C(=O)c1ccccc1)CC2` (stereo not shown) | 14.34% | 13.07% & 0.5936% |
| `CCn1cc(S(=O)(=O)N2CCCSc3ccccc32)cn1` | 17.84% | 27.97% |
| `COCCN1CCC(CNc2nc3ccccc3o2)CC1` | -0.7681% | 9.27% |
| `CCCn1cnc(NC(=O)NCC2CCS(=O)(=O)C2)n1` (stereo not shown) | -22.92% | -27.76% & -4.009% |
| `CCN1C(=O)CCCC12CCCN(C(=O)c1cnccn1)C2` (stereo not shown) | 4.045% | -13.54% |

Data taken from ChEMBL document CHEMBL3988442, “University of Dundee, Small-Polar-MMV Screening Library” (2021).